Experimental findings from doi:10.1101/2025.02.21.639583 are described below.

Amino acid sequences for entries named in this document (tags omitted).
UniProt P19524: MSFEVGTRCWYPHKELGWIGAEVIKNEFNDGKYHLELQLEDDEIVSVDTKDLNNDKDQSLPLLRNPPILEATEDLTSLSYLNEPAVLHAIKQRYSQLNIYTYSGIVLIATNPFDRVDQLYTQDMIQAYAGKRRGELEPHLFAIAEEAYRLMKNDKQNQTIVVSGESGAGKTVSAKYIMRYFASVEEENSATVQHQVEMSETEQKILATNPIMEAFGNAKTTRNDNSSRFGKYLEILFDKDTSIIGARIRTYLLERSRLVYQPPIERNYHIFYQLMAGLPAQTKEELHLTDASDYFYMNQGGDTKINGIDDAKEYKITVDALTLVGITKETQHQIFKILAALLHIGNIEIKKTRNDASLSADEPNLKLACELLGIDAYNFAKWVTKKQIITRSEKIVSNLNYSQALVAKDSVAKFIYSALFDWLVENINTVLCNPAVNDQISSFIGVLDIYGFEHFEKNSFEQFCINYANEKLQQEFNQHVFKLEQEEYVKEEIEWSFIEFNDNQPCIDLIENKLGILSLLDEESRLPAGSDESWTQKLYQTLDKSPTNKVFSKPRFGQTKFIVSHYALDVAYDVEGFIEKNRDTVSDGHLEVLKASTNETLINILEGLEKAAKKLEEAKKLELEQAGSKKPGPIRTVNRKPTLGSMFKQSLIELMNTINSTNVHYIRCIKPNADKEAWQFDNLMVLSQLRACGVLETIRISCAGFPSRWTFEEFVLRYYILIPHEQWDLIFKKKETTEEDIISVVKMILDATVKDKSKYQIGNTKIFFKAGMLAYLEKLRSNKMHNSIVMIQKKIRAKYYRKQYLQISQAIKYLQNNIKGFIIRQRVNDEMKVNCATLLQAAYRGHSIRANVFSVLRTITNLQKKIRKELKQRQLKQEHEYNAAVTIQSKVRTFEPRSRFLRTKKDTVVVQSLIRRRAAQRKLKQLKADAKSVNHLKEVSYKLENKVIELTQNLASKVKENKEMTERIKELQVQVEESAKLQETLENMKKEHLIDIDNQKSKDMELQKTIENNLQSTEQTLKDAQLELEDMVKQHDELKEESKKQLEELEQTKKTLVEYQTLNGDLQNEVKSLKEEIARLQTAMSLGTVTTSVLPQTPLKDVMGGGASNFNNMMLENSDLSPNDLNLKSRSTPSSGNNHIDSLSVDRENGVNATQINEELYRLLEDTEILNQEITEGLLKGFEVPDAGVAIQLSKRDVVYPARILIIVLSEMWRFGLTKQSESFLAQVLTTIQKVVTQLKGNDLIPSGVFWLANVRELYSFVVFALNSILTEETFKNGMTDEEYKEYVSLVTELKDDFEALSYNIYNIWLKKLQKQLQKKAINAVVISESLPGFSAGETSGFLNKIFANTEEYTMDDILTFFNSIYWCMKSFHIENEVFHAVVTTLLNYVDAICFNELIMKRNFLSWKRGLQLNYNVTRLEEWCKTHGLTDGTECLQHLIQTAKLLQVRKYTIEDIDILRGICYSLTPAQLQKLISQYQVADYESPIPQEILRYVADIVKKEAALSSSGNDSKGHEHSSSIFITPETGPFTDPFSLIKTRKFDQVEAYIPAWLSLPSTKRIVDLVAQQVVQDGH

Where two headings read alike, the source gives them in different places. No constants are given. Whether binding was seen depends on the method and setting. In cells and extracts the contact can be indirect. These calls come from enrichment with a bait or labelling near it, and not all partners need be listed. Where a sequence is shown, tags or fusion partners need not be part of it.

For assay [1], the target named is T1, Ldm1-GFP (Lipid Droplet Motility 1 / Yer085c, C-terminally GFP-tagged, TEF2 promoter) (S. cerevisiae) (UniProt P40058).
T1 sequence: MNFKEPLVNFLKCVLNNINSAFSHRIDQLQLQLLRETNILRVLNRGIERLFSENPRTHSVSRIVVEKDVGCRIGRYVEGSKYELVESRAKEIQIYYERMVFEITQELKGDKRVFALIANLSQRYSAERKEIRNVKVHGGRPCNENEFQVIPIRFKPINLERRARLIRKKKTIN
The experiment in a line: affinity purification with mass spectrometry.

Assay [2] concerns the target T1, Ldm1-GFP (Lipid Droplet Motility 1 / Yer085c, C-terminally GFP-tagged, TEF2 promoter) (S. cerevisiae). Nature of the assay: affinity purification with mass spectrometry. The source holds these as a separate data set.

Turning to “Myo2 (type V myosin motor protein) (from UniProt P19524 1-1574)”, in assay [1], the binding entry was “binds”. Take “Pln1 (structural LD protein) (S. cerevisiae (endogenous in yeast))”: the binding result in assay [1] is on record as “binds”.

B1: Ldo16 (LD surface protein) (protein, UniProt P40219 1-148)
chain: MVSTATFFFFVYLTLFVVIGFFSSLFIIPLLGISFVFAIGVVSFGFCSNMSFKMAQLIYVRADAFLKKVLDKMALQTQPAQLQEPQEPLSTLRPVSNPTIPSPLRQTARPSKFVTEEDVIFEPVSAQSAIARSLETTANKAGNKFQLS
For the molecule B1, the binding entry in assay [2] is given as “binds”.
